# Source: US20090258889A1, “PESTICIDAL COMPOSITIONS” (Whitmire Micro-Gen Research Laboratories, Inc., priority 2008, published 2009)
# System: cockroaches
# Assay: Dose-response mortality test with probit analysis to estimate LD50 and LD10 for cockroaches
# Type: in vivo, cockroach
# Details: slope of dose-response mortality
row,SMILES,Slope (+/−SE)
1,"CCCCCCCCCCO [Composition 1-decanol, 1-decanol]",6.931 (1.023)
2,"CCCCCCO [Composition 1-hexanol, 1-hexanol]",6.392 (0.869)
3,"CCCCCCCCO [Composition 1-octanol, 1-octanol]",4.375 (0.720)
4,CC(C)O [Isopropyl alcohol],5.370 (0.701)
5,"CCCCCCCO [Composition 1-heptanol, 1-heptanol]",5.502 (0.951)
6,CC(=O)CC(C)(C)O [Diacetone alcohol],4.617 (0.596)
7,CC(C)CO [isobutyl alcohol],4.129 (0.452)
8,"CCCO [Composition 1-propanol, 1-propanol]",17.756 (2.034)
9,"CCCCCCCCCCCO [Composition 1-undecanol, 1-undecanol]",6.956 (1.013)
10,OCCc1ccccc1 [2-phenylethanol],3.628 (0.546)
11,CCO [Ethanol],10.037 (1.285)
